From PubChem BioAssay AID248 (DTP/NCI, 2004)
The list shows only some results of the screen, not a fair sample: it is rich in T/C values a quarter to a half above the control, in often repeated tests (any T/C) and in doses without a T/C. Further doses and runs are listed elsewhere. T/C: endpoint of the treated group in % of that of the vehicle group. Some entries give survivors of the animals treated and no T/C: the source holds a T/C of zero for them, seemingly a mark for toxic or unscored doses. Some survivor counts are full or nearly so, which does not show that the dose was tolerated: survival well below the control is almost never listed, so the zero probably covers shortened survival too. Counts of survivors are from the toxicity check (mostly the fifth day) where no day follows; animals may have died later. Schedules are NCI's codes, read here as Q, the interval in days (D) or hours (H), X, the number of doses. Some molecules as drawn cover several salts, stereoisomers or complexes of the source; a dose is that of the sample tested. Marks such as (2×) give the number of equal values in this list. Some entries hold several experiments; their values stand side by side, smallest first. For survival time, the PubChem record calls one and a half times the control and up active, and a quarter to a half above the control has no call in these data; cut-offs in other NCI protocols can differ. Some T/C values carry the count of animals alive at the toxicity check (mostly the fifth day); without a count, all were alive then.

Tested on: L1210 leukemia ip in BDF1 mice, survival T/C
Test: NCI In Vivo Anticancer Drug Screen. Data for tumor model L1210 Leukemia (intraperitoneal) in B6D2F1 (BDF1) mice
Settings: higher T/C = longer survival

## COc1cc(NS(C)(=O)=O)ccc1Nc1c2ccccc2nc2ccccc12
T/C endpoint: mean survival time, dose: 0.25 mg/kg/injection, schedule: Q01DX009 (ip), vehicle: saline with Tween-80
  T/C: 143 % of control
T/C endpoint: mean survival time, dose: 0.5 mg/kg/injection, schedule: Q01DX009 (ip), vehicle: other
  T/C: 130 % of control
T/C endpoint: mean survival time, dose: 0.5 mg/kg/injection, schedule: Q03HX008 (ip), vehicle: other
  T/C: 134 % of control
T/C endpoint: mean survival time, dose: 0.59 mg/kg/injection, schedule: Q01DX009 (ip), vehicle: saline
  T/C: 143 % of control
T/C endpoint: mean survival time, dose: 0.75 mg/kg/injection, schedule: Q01DX009 (ip), vehicle: Klucel (hydroxypropylcellulose) (HPC)
  T/C: 132 % of control
T/C endpoint: mean survival time, dose: 0.89 mg/kg/injection, schedule: Q01DX009 (ip), vehicle: saline
  T/C: 142 % of control
T/C endpoint: mean survival time, dose: 1.0 mg/kg/injection, schedule: Q01DX009 (ip), vehicle: other
  T/C: 139 % of control
T/C endpoint: mean survival time, dose: 1.0 mg/kg/injection, schedule: Q03HX008 (ip), vehicle: other
  T/C: 138 % of control
T/C endpoint: mean survival time, dose: 1.35 mg/kg/injection, schedule: Q01DX009 (ip), vehicle: Klucel (hydroxypropylcellulose) (HPC)
  T/C: 140 % of control
T/C endpoint: mean survival time, dose: 1.5 mg/kg/injection, schedule: Q01DX009 (ip), vehicle: Klucel (hydroxypropylcellulose) (HPC)
  T/C: 146 % of control
T/C endpoint: mean survival time, dose: 1.56 mg/kg/injection, schedule: Q01DX009 (ip), vehicle: saline with Tween-80
  T/C: 141 % of control
T/C endpoint: mean survival time, dose: 2.0 mg/kg/injection, schedule: Q01DX009 (ip), vehicle: Klucel (hydroxypropylcellulose) (HPC)
  T/C: 138 % of control
T/C endpoint: mean survival time, dose: 2.0 mg/kg/injection, schedule: Q01DX009 (ip), vehicle: other
  T/C: 142 % of control
T/C endpoint: mean survival time, dose: 2.05 mg/kg/injection, schedule: Q01DX009 (ip), vehicle: saline
  T/C: 148 % of control
T/C endpoint: mean survival time, dose: 3.12 mg/kg/injection, schedule: Q01DX009 (ip), vehicle: saline
  T/C: 141 % of control
T/C endpoint: mean survival time, dose: 3.75 mg/kg/injection, schedule: Q04DX003 (ip), vehicle: other
  T/C: 129 % of control
T/C endpoint: mean survival time, dose: 4.0 mg/kg/injection, schedule: Q01DX009 (ip), vehicle: other
  T/C: 135 % of control
T/C endpoint: mean survival time, dose: 4.0 mg/kg/injection, schedule: Q03HX008 (ip), vehicle: other
  survivor count: 7 of 10
T/C endpoint: mean survival time, dose: 4.68 mg/kg/injection, schedule: Q01DX009 (ip), vehicle: saline
  T/C: 146 % of control
T/C endpoint: mean survival time, dose: 5.0 mg/kg/injection, schedule: Q01DX009 (sc), vehicle: saline
  T/C: 130 % of control
T/C endpoint: mean survival time, dose: 6.0 mg/kg/injection, schedule: Q01DX009 (sc), vehicle: saline
  T/C: 131 % of control
T/C endpoint: mean survival time, dose: 7.5 mg/kg/injection, schedule: Q01DX001 (ip), vehicle: other
  T/C: 126 and 131 % of control
T/C endpoint: mean survival time, dose: 8.0 mg/kg/injection, schedule: Q01DX009 (ip), vehicle: Klucel (hydroxypropylcellulose) (HPC)
  T/C: 141 % of control
T/C endpoint: mean survival time, dose: 10.0 mg/kg/injection, schedule: Q01DX009 (sc), vehicle: saline
  T/C: 133 and 146 % of control [8 of 10 alive]
T/C endpoint: mean survival time, dose: 12.0 mg/kg/injection, schedule: Q01DX009 (ip), vehicle: Klucel (hydroxypropylcellulose) (HPC)
  survivor count: 6 of 6
T/C endpoint: mean survival time, dose: 12.5 mg/kg/injection, schedule: Q01DX001 (ip), vehicle: saline
  T/C: 135 % of control
T/C endpoint: mean survival time, dose: 12.5 mg/kg/injection, schedule: Q01DX009 (ip), vehicle: saline with Tween-80
  survivor count: 8 of 10
T/C endpoint: mean survival time, dose: 14.0 mg/kg/injection, schedule: Q01DX009 (ip), vehicle: water
  survivor count: 3 of 8 (2×)
T/C endpoint: mean survival time, dose: 15.0 mg/kg/injection, schedule: Q01DX001 (ip), vehicle: Klucel (hydroxypropylcellulose) (HPC)
  T/C: 142 % of control
T/C endpoint: mean survival time, dose: 15.0 mg/kg/injection, schedule: Q01DX001 (ip), vehicle: clinical formulation
  survivor count: 6 of 10
T/C endpoint: mean survival time, dose: 15.0 mg/kg/injection, schedule: Q01DX001 (ip), vehicle: other
  T/C: 143 and 144 % of control
T/C endpoint: mean survival time, dose: 16.0 mg/kg/injection, schedule: Q01DX009 (ip), vehicle: Klucel (hydroxypropylcellulose) (HPC)
  survivor count: 6 of 6
T/C endpoint: mean survival time, dose: 16.0 mg/kg/injection, schedule: Q01DX009 (ip), vehicle: other
  survivor count: 10 of 10
T/C endpoint: mean survival time, dose: 18.75 mg/kg/injection, schedule: Q01DX001 (ip), vehicle: saline with Tween-80
  T/C: 142 % of control
T/C endpoint: mean survival time, dose: 20.0 mg/kg/injection, schedule: Q01DX009 (ip), vehicle: saline with Tween-80
  survivor count: 6 of 10
T/C endpoint: mean survival time, dose: 20.0 mg/kg/injection, schedule: Q01DX009 (sc), vehicle: saline
  T/C: 135 % of control
T/C endpoint: mean survival time, dose: 23.0 mg/kg/injection, schedule: Q01DX009 (ip), vehicle: water
  survivor count: 0 of 8 (2×)
T/C endpoint: mean survival time, dose: 25.0 mg/kg/injection, schedule: Q01DX001 (ip), vehicle: saline
  T/C: 146 % of control
T/C endpoint: mean survival time, dose: 25.0 mg/kg/injection, schedule: Q01DX009 (ip), vehicle: acetone
  survivor count: 6 of 6
T/C endpoint: mean survival time, dose: 25.0 mg/kg/injection, schedule: Q01DX009 (ip), vehicle: saline with Tween-80
  survivor count: 5 of 10 and 6 of 10
T/C endpoint: mean survival time, dose: 25.0 mg/kg/injection, schedule: Q01DX009 (ip), vehicle: saline
  survivor count: 6 of 6
T/C endpoint: mean survival time, dose: 30.0 mg/kg/injection, schedule: Q01DX001 (ip), vehicle: clinical formulation
  survivor count: 7 of 10
T/C endpoint: mean survival time, dose: 30.0 mg/kg/injection, schedule: Q01DX001 (ip), vehicle: other
  survivor count: 6 of 10
T/C endpoint: mean survival time, dose: 30.0 mg/kg/injection, schedule: Q04DX003 (ip), vehicle: other
  survivor count: 5 of 10
T/C endpoint: mean survival time, dose: 33.0 mg/kg/injection, schedule: Q01DX001 (ip), vehicle: saline
  T/C: 143 and 147 % of control
T/C endpoint: mean survival time, dose: 39.0 mg/kg/injection, schedule: Q01DX009 (ip), vehicle: water
  survivor count: 0 of 8 (2×)
T/C endpoint: mean survival time, dose: 40.0 mg/kg/injection, schedule: Q01DX009 (ip), vehicle: saline with Tween-80
  survivor count: 0 of 10
T/C endpoint: mean survival time, dose: 45.0 mg/kg/injection, schedule: Q01DX001 (ip), vehicle: clinical formulation
  survivor count: 2 of 10
T/C endpoint: mean survival time, dose: 50.0 mg/kg/injection, schedule: Q01DX001 (ip), vehicle: Klucel (hydroxypropylcellulose) (HPC)
  survivor count: 2 of 3
T/C endpoint: mean survival time, dose: 50.0 mg/kg/injection, schedule: Q01DX001 (ip), vehicle: saline
  T/C: 142 % of control
T/C endpoint: mean survival time, dose: 50.0 mg/kg/injection, schedule: Q01DX009 (ip), vehicle: saline with Tween-80
  survivor count: 5 of 10
T/C endpoint: mean survival time, dose: 50.0 mg/kg/injection, schedule: Q01DX009 (ip), vehicle: saline
  survivor count: 0 of 6
T/C endpoint: mean survival time, dose: 60.0 mg/kg/injection, schedule: Q01DX001 (ip), vehicle: clinical formulation
  survivor count: 4 of 10
T/C endpoint: mean survival time, dose: 75.0 mg/kg/injection, schedule: Q01DX001 (ip), vehicle: saline with Tween-80
  T/C: 133 [9 of 10 alive] and 143 % of control
T/C endpoint: mean survival time, dose: 100.0 mg/kg/injection, schedule: Q01DX001 (ip), vehicle: Klucel (hydroxypropylcellulose) (HPC)
  survivor count: 2 of 3
T/C endpoint: mean survival time, dose: 100.0 mg/kg/injection, schedule: Q01DX001 (ip), vehicle: saline
  survivor count: 2 of 6
T/C endpoint: mean survival time, dose: 120.0 mg/kg/injection, schedule: Q01DX001 (ip), vehicle: Klucel (hydroxypropylcellulose) (HPC)
  survivor count: 6 of 10
T/C endpoint: mean survival time, dose: 150.0 mg/kg/injection, schedule: Q01DX001 (ip), vehicle: saline with Tween-80
  survivor count: 6 of 10
T/C endpoint: mean survival time, dose: 200.0 mg/kg/injection, schedule: Q01DX001 (ip), vehicle: saline
  survivor count: 1 of 6
T/C endpoint: mean survival time, dose: 240.0 mg/kg/injection, schedule: Q01DX001 (ip), vehicle: Klucel (hydroxypropylcellulose) (HPC)
  survivor count: 0 of 10
T/C endpoint: mean survival time, dose: 300.0 mg/kg/injection, schedule: Q01DX001 (ip), vehicle: saline with Tween-80
  survivor count: 1 of 10
T/C endpoint: mean survival time, dose: 400.0 mg/kg/injection, schedule: Q01DX001 (ip), vehicle: saline
  survivor count: 0 of 6
T/C endpoint: median survival time, dose: 2.0 mg/kg/injection, schedule: Q01DX009 (sc), vehicle: other
  T/C: 129 % of control
T/C endpoint: median survival time, dose: 4.0 mg/kg/injection, schedule: Q01DX009 (sc), vehicle: other
  T/C: 135 % of control
T/C endpoint: median survival time, dose: 16.0 mg/kg/injection, schedule: Q01DX009 (oral), vehicle: other
  survivor count: 10 of 10
T/C endpoint: median survival time, dose: 16.0 mg/kg/injection, schedule: Q01DX009 (sc), vehicle: other
  survivor count: 9 of 10
T/C endpoint: median survival time, dose: 32.0 mg/kg/injection, schedule: Q01DX009 (oral), vehicle: other
  survivor count: 8 of 10
